Test results taken from PubChem BioAssay AID493014 (National Center for Advancing Translational Sciences (NCATS), 2011).
The list shows a part of the results. The main result of the screen is listed elsewhere. These columns were measured beside it and carry no call. Most of these compounds were active or inconclusive in the main read-out, so they are no random draw. Words in brackets tell the shape of the fitted curve; partial curves, single points and poor fits give uncertain potencies.

Test: qHTS Assay to Find Inhibitors of Chronic Active B-Cell Receptor Signaling
Settings: ABC-DLBCL IkBa-CBG/CBR reporter, luminescence ratio (green luciferase fused to IkBa over red control in TMD8 lymphoma cells), 4 h
Summary of the method: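 TMD8 human ABC-DLBCL cells with doxycycline-inducible IκBα–green luciferase fusion and unfused red luciferase, in 0.5% FBS medium; compounds up to 46 uM, 4 h at 37C. Green/red luminescence ratio, filter-overlap corrected, fitted to concentration-response curves.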

[1] = measured here: CBR red luminescence, cell number
[2] = measured here: IkBa-CBG green luminescence

Compound	AC50 [1]	AC50 [2]
CCOc1ccc(C2NC(=O)C(C#N)=C(S)N2c2ccc(OC)cc2)cc1OC (stereo not given)	31.6 µM [falling, single point]	15.8 µM [falling, single point]
CCOC(=O)C1=C(C)NC(C)=C(C(=O)OCC)C1c1cc2ccc(C)cc2[nH]c1=O	1.12 µM [rising, full curve, poor fit]	
CC(=C\c1ccco1)/C=C1/SC(=S)N(CC(=O)O)C1=O	7.08 µM [rising, partial curve, poor fit]	
O=C(Cn1[nH]c(=O)c2ccccc2c1=O)Nc1ccc(-c2nnc3n2CCCCC3)cc1	29.1 µM [falling, single point]	
CCOc1cc2[nH]c(=S)n(C3CC3)c(=O)c2cc1OCC	0.562 µM [falling, full curve, poor fit]	
CCN1C(=O)[C@H]2[C@@H](c3ccc(-c4ccc(F)cc4)c(OC)c3)N3CCCC[C@@]3(C(=O)OC)[C@H]2C1=O	29.1 µM [falling, partial curve, poor fit]	
N#Cc1nc(Cc2ccccc2)oc1NCc1ccccc1Cl	10 µM [falling, partial curve, poor fit]	
O=C(/C=C/c1ccccc1)Nc1cccc(S(=O)(=O)Nc2ccccc2F)c1	9.2 µM [falling, partial curve]	
COc1cc(/C=N/n2nnnc2N)ccc1OCc1c(C)no[n+]1[O-]	6.51 µM [rising, single point]	
O=C(NCCOCc1ccc(Cl)cc1)c1ncn[nH]1	20.6 µM [rising, partial curve, poor fit]	
N#CC1(c2ccc(NC(=O)c3ccccc3F)cc2)CCCC1	20.6 µM [falling, single point]	
CC(C)(C)OC(=O)C(C(=O)OC(C)(C)C)c1ccc(Cl)nn1	11.2 µM [rising, partial curve, poor fit]	
CCCCOc1ccc2c(c1)C(=O)c1cc(O)ccc1-2	11.2 µM [rising, partial curve]	
CC(Oc1ccccc1)C(=O)Nc1ccccc1O (stereo not given)	5.17 µM [rising, single point]	
Cc1ccc(OCC(=O)N2N=C(C(F)(F)F)CC2(O)C(C)(C)C)cc1C (stereo not given)	11.6 µM [falling, partial curve, poor fit]	
COc1ccc(/C=N/Nc2ncnc3scc(-c4ccccc4)c23)cc1OC	0.058 µM [falling, full curve, poor fit]	
O=C(NNc1ccc(Cl)cc1)c1sccc1Cl	15.8 µM [falling, partial curve]	
O=C1c2ccccc2C(=O)N1c1n[nH]c(CCc2ccccc2)n1	22.4 µM [rising, partial curve, poor fit]	
Nc1c(N2CCCC2)c2ccccc2oc1=O	7.08 µM [falling, partial curve, poor fit]	
CC1(C)CC(C)(c2ccc(O)cc2O)N(c2cccc(Cl)c2)C(=S)N1 (stereo not given)	10.3 µM [falling, partial curve]	
CCCCOCC1CC(CC#CCN2CCCCC2)C(=O)O1 (stereo not given)	12.6 µM [rising, partial curve, poor fit]	

Compound	AC50 [1]	AC50 [2]
O=C(/C=C/NNC(=O)c1ccccc1O)c1ccccc1	11.2 µM [falling, partial curve]	
CCn1nc(C)c([N+](=O)[O-])c1C(=O)NNC(=O)c1ccccc1Cl	15.8 µM [falling, partial curve, poor fit]	
COc1cc(C2c3c(-c4ccccc4)n[nH]c3C(=O)N2c2ccccc2)ccc1O (stereo not given)	11.2 µM [falling, partial curve]	
C/C(=N\NC(=O)c1ccccc1)c1ccc(N2CCOCC2)cc1	11.6 µM [falling, partial curve]	
COc1cc(/C=C(/C(=O)O)c2ccc(-c3ccccc3)cc2)cc(OC)c1OC	35.5 µM [falling, single point]	
COc1ccc2c(c1)CC/C(=C\C=C\c1ccccc1OC)C2=O	11.6 µM [falling, partial curve]	
C=CCn1c(-c2sc(-c3ccccc3)nc2C)n[nH]c1=S	22.4 µM [rising, single point]	35.5 µM [falling, single point]
CCCn1c(=O)c2[nH]c(-c3ccc(OCC(=O)Nc4ccc(C#N)cc4)cc3)nc2n(CCC)c1=O	5.8 µM [falling, single point]	
O=C(Nc1ccc(C(=O)O)cc1)Nc1cccc([N+](=O)[O-])c1	23.1 µM [falling, single point]	
CC1CCCN(S(=O)(=O)c2cc(C(=O)NCc3ccco3)ccc2Cl)C1 (stereo not given)	18.4 µM [falling, single point]	
CCOC(=O)Cn1nc(/C=C/c2ccc(C(C)C)cc2)ccc1=O	8.91 µM [rising, partial curve, poor fit]	
COC(=O)c1ccccc1Sc1c(/C=N/OCc2ccc(Cl)cc2)c(C(F)(F)F)nn1C	29.1 µM [falling, single point]	
O=C(Oc1cccc(NC(=O)c2ccco2)c1)c1cccc(S(=O)(=O)N2CCCC2)c1	20.6 µM [falling, partial curve]	
COc1ccc(CC2=C(O)c3ccccc3C(=O)C2=O)cc1	35.5 µM [falling, partial curve, poor fit]	
O=C(CCCc1nc(-c2ccccc2Cl)no1)NC1CCCC1	22.4 µM [falling, single point]	
CCOc1ccc(N2C(=O)CC(Sc3nc(CC(C)C)ccc3C#N)C2=O)cc1 (stereo not given)	35.5 µM [rising, single point]	
COc1cc(C=O)ccc1OCc1c(C)noc1C	0.82 µM [rising, full curve, poor fit]	
O=C(c1ccccc1SCc1ccccc1)N1CCCCCC1	0.1 µM [rising, full curve, poor fit]	
Cc1ccc(-n2c(C)cc(/C=N/NC(=O)c3ccc(CN4CCOCC4)cc3)c2C)cc1	1.12 µM [falling, full curve, poor fit]	
C#CCOCCOCCOCCNc1nc(N2CCN(C(=O)CCCCCCCCCCNC(=O)[C@H]([C@@H](C)CC)n3cc(CCCCN=C(N)N)nn3)CC2)nc(N2CCN(C(=O)CCCCCCCCCCNC(=O)[C@H](CCCCN)n3cc(C[C@@H](C)CC)nn3)CC2)n1	20.6 µM [rising, single point]	
O=C(NC1=NCCS1)Nc1ccccc1	35.5 µM [falling, single point]	

18 successive records out of the list so far:
Compound	AC50 [1]	AC50 [2]
COc1cc(C2c3c(-c4ccccc4)n[nH]c3C(=O)N2c2ccccc2)ccc1O (stereo not given)	11.2 µM [falling, partial curve]	
C/C(=N\NC(=O)c1ccccc1)c1ccc(N2CCOCC2)cc1	11.6 µM [falling, partial curve]	
COc1cc(/C=C(/C(=O)O)c2ccc(-c3ccccc3)cc2)cc(OC)c1OC	35.5 µM [falling, single point]	
COc1ccc2c(c1)CC/C(=C\C=C\c1ccccc1OC)C2=O	11.6 µM [falling, partial curve]	
C=CCn1c(-c2sc(-c3ccccc3)nc2C)n[nH]c1=S	22.4 µM [rising, single point]	35.5 µM [falling, single point]
CCCn1c(=O)c2[nH]c(-c3ccc(OCC(=O)Nc4ccc(C#N)cc4)cc3)nc2n(CCC)c1=O	5.8 µM [falling, single point]	
O=C(Nc1ccc(C(=O)O)cc1)Nc1cccc([N+](=O)[O-])c1	23.1 µM [falling, single point]	
CC1CCCN(S(=O)(=O)c2cc(C(=O)NCc3ccco3)ccc2Cl)C1 (stereo not given)	18.4 µM [falling, single point]	
CCOC(=O)Cn1nc(/C=C/c2ccc(C(C)C)cc2)ccc1=O	8.91 µM [rising, partial curve, poor fit]	
COC(=O)c1ccccc1Sc1c(/C=N/OCc2ccc(Cl)cc2)c(C(F)(F)F)nn1C	29.1 µM [falling, single point]	
O=C(Oc1cccc(NC(=O)c2ccco2)c1)c1cccc(S(=O)(=O)N2CCCC2)c1	20.6 µM [falling, partial curve]	
COc1ccc(CC2=C(O)c3ccccc3C(=O)C2=O)cc1	35.5 µM [falling, partial curve, poor fit]	
O=C(CCCc1nc(-c2ccccc2Cl)no1)NC1CCCC1	22.4 µM [falling, single point]	
CCOc1ccc(N2C(=O)CC(Sc3nc(CC(C)C)ccc3C#N)C2=O)cc1 (stereo not given)	35.5 µM [rising, single point]	
COc1cc(C=O)ccc1OCc1c(C)noc1C	0.82 µM [rising, full curve, poor fit]	
O=C(c1ccccc1SCc1ccccc1)N1CCCCCC1	0.1 µM [rising, full curve, poor fit]	
Cc1ccc(-n2c(C)cc(/C=N/NC(=O)c3ccc(CN4CCOCC4)cc3)c2C)cc1	1.12 µM [falling, full curve, poor fit]	
C#CCOCCOCCOCCNc1nc(N2CCN(C(=O)CCCCCCCCCCNC(=O)[C@H]([C@@H](C)CC)n3cc(CCCCN=C(N)N)nn3)CC2)nc(N2CCN(C(=O)CCCCCCCCCCNC(=O)[C@H](CCCCN)n3cc(C[C@@H](C)CC)nn3)CC2)n1	20.6 µM [rising, single point]	

(cont.)

Compound	AC50 [1]	AC50 [2]
CCOc1ccc(N2C(=O)CC(N)C2=O)cc1 (stereo not given)	23.1 µM [falling, partial curve]	18.4 µM [rising, partial curve, poor fit]
CCOC(=O)C1(CCc2ccccc2)CCN(Cc2ccc(O)cc2)CC1	10 µM [falling, partial curve, poor fit]	
O=C(Nc1cccc(-c2cn3c(n2)SCC3)c1)c1ccc2ccccc2n1	10 µM [falling, partial curve, poor fit]	
CCOC(=O)/C=c1\s/c(=C\c2c(OC)ccc3ccccc23)c(=O)n1CC(=O)NCC1CCCO1 (stereo not given)	16.4 µM [rising, single point]	18.4 µM [falling, single point]
CC1CCCC(NC(=O)COC(=O)/C=C/c2ccco2)C1C (stereo not given)	0.103 µM [falling, full curve, poor fit]	
CCOC(=O)N/N=C/c1cn(Cc2ccc(Cl)cc2)c2ccccc12	29.1 µM [rising, single point]	
COc1ccc(CC(NC(C)=O)C(=O)NC2CCN(C(=O)Nc3ccc(Cl)cc3)CC2)cc1OC (stereo not given)	2.51 µM [rising, full curve]	
COc1cc(C(=O)Nc2cc(-c3nc4cc(C)ccc4o3)ccc2C)cc(OC)c1OC	0.562 µM [rising, full curve]	
O=[N+]([O-])c1ccc(SCCO)nc1SCCO	15.8 µM [falling, partial curve, poor fit]	
Cn1c(/C(C#N)=C/c2ccc(O)cc2)nc2ccccc21	11.2 µM [falling, partial curve]	
COc1ccc(/C=N/N2CCN(c3ccc(Cl)cc3)CC2)cc1O	28.2 µM [falling, partial curve, poor fit]	
CCN1CCN(S(=O)(=O)CC2(C)C3CCC2(C)C(=O)C3Br)CC1 (stereo not given)	3.16 µM [rising, single point]	
COc1cccc(Nc2nc3ccc(C(=O)c4ccccc4)cc3n3cnnc23)c1	0.112 µM [rising, full curve, poor fit]	
CCC(C(=O)c1ccc2ncccc2c1)c1ccccc1 (stereo not given)	5.8 µM [rising, partial curve]	
CN(C)S(=O)(=O)c1cccc(NC(=O)c2cc3ccccc3o2)c1	23.1 µM [falling, partial curve]	
CNC(=O)c1nnsc1S(=O)(=O)c1ccc(Cl)cc1	2.82 µM [falling, full curve]	
COc1cccc(C(=O)Nc2ccc3c(c2)C(=O)c2ccccc2C3=O)c1	2.59 µM [rising, partial curve, poor fit]	
O=C(COC(=O)c1ccc(F)c(S(=O)(=O)N2CCOCC2)c1)c1ccc(Br)cc1	3.66 µM [falling, partial curve, poor fit]	
CCOC(=O)C1CCN(Cc2cnc(Oc3ccc(Cl)cc3C)s2)CC1	12.6 µM [falling, partial curve]	
